The source of these data is article PMC7217479.

Protein sequences, listed by entry. Tags and fused reporters are not part of them. Lines headed by an entry give the natural chain unless they say otherwise; changes in a name come on top.
UniProt Q2GI62: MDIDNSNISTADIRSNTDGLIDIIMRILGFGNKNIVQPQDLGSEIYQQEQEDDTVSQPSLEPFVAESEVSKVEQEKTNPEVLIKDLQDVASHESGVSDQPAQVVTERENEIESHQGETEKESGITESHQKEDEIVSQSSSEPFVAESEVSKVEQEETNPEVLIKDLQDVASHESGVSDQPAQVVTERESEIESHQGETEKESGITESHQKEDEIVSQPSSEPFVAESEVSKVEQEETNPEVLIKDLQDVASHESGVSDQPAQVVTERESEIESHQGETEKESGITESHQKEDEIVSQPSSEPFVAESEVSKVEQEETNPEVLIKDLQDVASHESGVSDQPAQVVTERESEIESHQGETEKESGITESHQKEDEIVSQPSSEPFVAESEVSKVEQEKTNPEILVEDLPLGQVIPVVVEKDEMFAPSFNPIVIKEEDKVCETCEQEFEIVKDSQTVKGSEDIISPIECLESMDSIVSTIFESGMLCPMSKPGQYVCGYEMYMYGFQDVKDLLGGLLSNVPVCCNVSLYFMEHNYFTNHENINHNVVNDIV
UniProt Q969H0: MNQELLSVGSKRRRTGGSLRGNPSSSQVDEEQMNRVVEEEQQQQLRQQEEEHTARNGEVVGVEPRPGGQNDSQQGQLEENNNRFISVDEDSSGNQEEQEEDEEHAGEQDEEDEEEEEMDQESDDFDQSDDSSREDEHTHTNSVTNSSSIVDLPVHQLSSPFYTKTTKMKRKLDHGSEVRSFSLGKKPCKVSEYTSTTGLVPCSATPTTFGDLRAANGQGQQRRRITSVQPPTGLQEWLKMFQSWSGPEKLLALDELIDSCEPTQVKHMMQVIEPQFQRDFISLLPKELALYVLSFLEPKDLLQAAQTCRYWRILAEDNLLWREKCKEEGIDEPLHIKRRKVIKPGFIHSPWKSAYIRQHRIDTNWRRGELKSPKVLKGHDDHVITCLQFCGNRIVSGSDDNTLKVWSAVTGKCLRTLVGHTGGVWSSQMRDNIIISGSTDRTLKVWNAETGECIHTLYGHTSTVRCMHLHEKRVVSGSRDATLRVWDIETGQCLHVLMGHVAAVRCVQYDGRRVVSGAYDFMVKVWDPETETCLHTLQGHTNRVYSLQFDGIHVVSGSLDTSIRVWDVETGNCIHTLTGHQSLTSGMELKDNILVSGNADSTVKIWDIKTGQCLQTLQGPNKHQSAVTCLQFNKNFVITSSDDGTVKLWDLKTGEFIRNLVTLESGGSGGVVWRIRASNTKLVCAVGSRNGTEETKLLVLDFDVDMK

The target of experiment [1] is Ehrlichia chaffeensis TRP120 effector (E. chaffeensis (Arkansas strain)) (UniProt Q2GI62). The experiment can be described thus: co-IP; whole cell lysates of E. chaffeensis-infected THP-1 cells harvested at 24, 48 and 72 hpi (uninfected controls); anti-TRP120 or anti-FBW7 antibody, protein A/G beads; Western immunoblot with anti-FBW7 or anti-TRP120.
For experiment [2], the target named is F-BOX and WD domain repeating-containing 7 (FBW7) (human (endogenous in THP-1)) (UniProt Q969H0). The description is as above.

These are yes or no findings as the source states them, for the method shown. Binding seen in cells or lysates may run through a third protein. Some binding calls cover weakened binding; strength is not graded here.

“F-BOX and WD domain repeating-containing 7 (FBW7) (from UniProt Q969H0-1 1-707)”: the binding entry in experiment [1] is recorded as “binds”.
For “Ehrlichia chaffeensis TRP120 effector (from UniProt Q2GI62 1-548)”, the binding result in experiment [2] is “binds”.
